{"source": "patent US10167453B2", "about": "“Saccharide oxidase, and production method for same and use of same” (AMANO ENZYME INC., priority 2012, dated 2019)", "molecules": {"B1": {"name": "Saccharide oxidase: protein having saccharide oxidase activity purified from Acremonium chrysogenum NBRC30055, about 63 kDa, amino acid sequence SEQ. ID. NO:10 (protein, listed as Acremonium chrysogenum)", "chain": "MRSLAPLLSIAALARASPVDTSLLTRQETLNTCLEAAELSYVDVNSEDWEDAIVPHNLRVPVVPRAVVYATATEQIQAAVKCAVESEIRVSAKSGGHSYASMGLGGEDGSLVIQLDHWHDVTLRDDNTAVVSAGTRLGVVALELYAQGKRGISHGTCPSVGVGGHVVHGGYGFSSHTHGLALDAVVGANVVLADGSLVHASETENTDLFWALRGGGSSFGIVAEFEFETFDVSHNFSYFSIDSDISQETAEEATASLLAFQDALEEGLMDRKLNMRLSLGRPKVTLEAVYHGAKEDGRKALELFDDILGLNWSSNRTRANEADWLTMLESWTYGDPLNITYPYEGHDNAYTSSLVTRHIPEDAMASFMTYWKGVGQDRETPNWWLQMDVHGDANSRISEVDADSTAYSHRDKLWLFQFSSPLNPLRPDPEAAFALVNGYMDSIKDHLGDGEWGRYANYIDSELSREDAQTQYWSDHLDKLQAIKAELDPTQVFYNPQSIDPAAVE"}}, "key": {"[1]": {"test": "Easiness in handling unbaked bread preparation (dough)", "details": "for handling and stickiness of the unbaked preparation (in words): 17 U enzyme, or 50 ppm hemicellulase or ascorbic acid"}, "[2]": {"test": "Production of bread, volume and hardness"}}}
{"molecule": "O=C1O[C@H]([C@@H](O)CO)C(O)=C1O", "note": "[Ascorbic acid, ascorbic acid, reference compound]", "values": [{"measurement": "handling and stickiness of the unbaked preparation (in words)", "setting": "[1]", "value": "didn't deposit on the machine"}]}
{"molecule": "B1", "values": [{"measurement": "hardness of the bread", "setting": "[2]; 10 U enzyme, maximum load at 10 mm compression, Day 1 and Day 4, compared with the glucose oxidase", "value": "increase in the hardness"}, {"measurement": "volume of the bread", "setting": "[2]; 10 U enzyme, rapeseed substitution method", "value": "allowed the volume to be reduced"}, {"measurement": "stickiness of the unbaked preparation", "setting": "[2]; compared with the glucose oxidase", "value": "reduced stickiness"}, {"measurement": "appearance of the unbaked preparation by visual inspection", "setting": "[1]; 17 U enzyme", "value": "network appearance"}, {"measurement": "handling and stickiness of the unbaked preparation (in words)", "setting": "[1]", "value": "didn't deposit on the machine"}]}
